Test [1] deals with T1, MEKK1 (gene product of Map3k1), full-length wild type (mouse) (UniProt P53349).
T1 sequence: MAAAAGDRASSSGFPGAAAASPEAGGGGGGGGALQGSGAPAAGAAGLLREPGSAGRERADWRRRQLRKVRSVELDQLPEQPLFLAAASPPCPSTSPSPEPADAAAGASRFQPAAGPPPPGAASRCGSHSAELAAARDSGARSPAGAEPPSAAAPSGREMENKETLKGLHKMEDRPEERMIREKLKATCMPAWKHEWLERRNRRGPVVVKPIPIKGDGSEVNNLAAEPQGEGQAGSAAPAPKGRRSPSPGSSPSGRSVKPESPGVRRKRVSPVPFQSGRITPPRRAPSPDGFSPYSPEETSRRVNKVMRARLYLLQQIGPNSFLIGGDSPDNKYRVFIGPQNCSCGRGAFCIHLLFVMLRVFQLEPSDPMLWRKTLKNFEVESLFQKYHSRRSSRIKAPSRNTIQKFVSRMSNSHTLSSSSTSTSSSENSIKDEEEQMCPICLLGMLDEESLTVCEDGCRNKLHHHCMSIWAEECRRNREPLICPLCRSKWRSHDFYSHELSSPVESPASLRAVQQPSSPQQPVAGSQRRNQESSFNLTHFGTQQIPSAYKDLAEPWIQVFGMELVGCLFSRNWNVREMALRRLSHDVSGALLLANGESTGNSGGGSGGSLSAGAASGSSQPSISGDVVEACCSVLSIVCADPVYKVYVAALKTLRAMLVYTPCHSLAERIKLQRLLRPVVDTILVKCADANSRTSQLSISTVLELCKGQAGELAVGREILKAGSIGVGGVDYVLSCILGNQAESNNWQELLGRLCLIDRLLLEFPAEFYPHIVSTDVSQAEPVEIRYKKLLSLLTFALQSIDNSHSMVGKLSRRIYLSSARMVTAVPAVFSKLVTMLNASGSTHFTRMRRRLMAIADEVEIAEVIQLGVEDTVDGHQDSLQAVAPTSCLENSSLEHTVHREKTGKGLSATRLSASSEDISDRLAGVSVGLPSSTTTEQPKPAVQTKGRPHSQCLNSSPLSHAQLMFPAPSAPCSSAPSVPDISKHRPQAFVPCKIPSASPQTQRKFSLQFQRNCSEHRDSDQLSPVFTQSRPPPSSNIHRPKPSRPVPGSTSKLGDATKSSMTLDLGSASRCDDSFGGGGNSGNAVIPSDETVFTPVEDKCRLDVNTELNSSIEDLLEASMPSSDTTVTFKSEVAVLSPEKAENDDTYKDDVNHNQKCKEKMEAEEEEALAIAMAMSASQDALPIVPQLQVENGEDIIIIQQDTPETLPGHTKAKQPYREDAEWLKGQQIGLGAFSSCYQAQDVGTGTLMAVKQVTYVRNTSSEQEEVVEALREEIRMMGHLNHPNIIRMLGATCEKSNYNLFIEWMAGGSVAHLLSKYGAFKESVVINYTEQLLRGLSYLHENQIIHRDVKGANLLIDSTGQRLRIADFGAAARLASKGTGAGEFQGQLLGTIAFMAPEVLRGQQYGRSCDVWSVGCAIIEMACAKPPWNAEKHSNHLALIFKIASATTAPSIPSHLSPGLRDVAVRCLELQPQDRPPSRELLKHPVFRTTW
The experiment in a line: co-IP; IP with FLAG antibodies from lysates of 67NR-OVA cells expressing Map3k1-WT or Map3k1-mut, after 24 h coculture with OT-I splenocytes; Western blot for DDX17. In general terms: A western blot detects proteins with antibodies after separation by electrophoresis.

Sequences of proteins named here, by UniProt entry; tags and fusion partners are left off.
UniProt Q501J6: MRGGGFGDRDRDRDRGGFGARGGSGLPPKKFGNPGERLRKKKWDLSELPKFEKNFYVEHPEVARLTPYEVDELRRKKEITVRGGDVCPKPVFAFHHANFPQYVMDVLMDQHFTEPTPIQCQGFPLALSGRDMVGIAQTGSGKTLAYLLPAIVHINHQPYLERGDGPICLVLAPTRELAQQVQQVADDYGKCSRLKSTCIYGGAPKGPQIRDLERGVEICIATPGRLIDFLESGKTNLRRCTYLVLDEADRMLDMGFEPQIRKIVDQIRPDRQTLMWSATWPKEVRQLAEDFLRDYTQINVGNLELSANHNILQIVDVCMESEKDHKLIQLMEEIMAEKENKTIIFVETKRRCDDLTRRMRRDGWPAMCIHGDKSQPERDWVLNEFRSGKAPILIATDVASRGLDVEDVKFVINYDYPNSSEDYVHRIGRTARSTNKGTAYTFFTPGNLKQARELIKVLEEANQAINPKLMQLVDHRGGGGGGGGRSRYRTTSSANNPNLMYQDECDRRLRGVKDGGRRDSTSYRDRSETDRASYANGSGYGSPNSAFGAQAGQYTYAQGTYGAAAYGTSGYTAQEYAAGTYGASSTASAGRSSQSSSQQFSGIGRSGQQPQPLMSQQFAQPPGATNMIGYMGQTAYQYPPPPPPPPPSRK

The target in test [2] is T2, MEKK1 (Map3k1) C-terminus kinase domain-truncated mutant (1-1,222 aa) (mouse) (UniProt P53349).
T2 sequence: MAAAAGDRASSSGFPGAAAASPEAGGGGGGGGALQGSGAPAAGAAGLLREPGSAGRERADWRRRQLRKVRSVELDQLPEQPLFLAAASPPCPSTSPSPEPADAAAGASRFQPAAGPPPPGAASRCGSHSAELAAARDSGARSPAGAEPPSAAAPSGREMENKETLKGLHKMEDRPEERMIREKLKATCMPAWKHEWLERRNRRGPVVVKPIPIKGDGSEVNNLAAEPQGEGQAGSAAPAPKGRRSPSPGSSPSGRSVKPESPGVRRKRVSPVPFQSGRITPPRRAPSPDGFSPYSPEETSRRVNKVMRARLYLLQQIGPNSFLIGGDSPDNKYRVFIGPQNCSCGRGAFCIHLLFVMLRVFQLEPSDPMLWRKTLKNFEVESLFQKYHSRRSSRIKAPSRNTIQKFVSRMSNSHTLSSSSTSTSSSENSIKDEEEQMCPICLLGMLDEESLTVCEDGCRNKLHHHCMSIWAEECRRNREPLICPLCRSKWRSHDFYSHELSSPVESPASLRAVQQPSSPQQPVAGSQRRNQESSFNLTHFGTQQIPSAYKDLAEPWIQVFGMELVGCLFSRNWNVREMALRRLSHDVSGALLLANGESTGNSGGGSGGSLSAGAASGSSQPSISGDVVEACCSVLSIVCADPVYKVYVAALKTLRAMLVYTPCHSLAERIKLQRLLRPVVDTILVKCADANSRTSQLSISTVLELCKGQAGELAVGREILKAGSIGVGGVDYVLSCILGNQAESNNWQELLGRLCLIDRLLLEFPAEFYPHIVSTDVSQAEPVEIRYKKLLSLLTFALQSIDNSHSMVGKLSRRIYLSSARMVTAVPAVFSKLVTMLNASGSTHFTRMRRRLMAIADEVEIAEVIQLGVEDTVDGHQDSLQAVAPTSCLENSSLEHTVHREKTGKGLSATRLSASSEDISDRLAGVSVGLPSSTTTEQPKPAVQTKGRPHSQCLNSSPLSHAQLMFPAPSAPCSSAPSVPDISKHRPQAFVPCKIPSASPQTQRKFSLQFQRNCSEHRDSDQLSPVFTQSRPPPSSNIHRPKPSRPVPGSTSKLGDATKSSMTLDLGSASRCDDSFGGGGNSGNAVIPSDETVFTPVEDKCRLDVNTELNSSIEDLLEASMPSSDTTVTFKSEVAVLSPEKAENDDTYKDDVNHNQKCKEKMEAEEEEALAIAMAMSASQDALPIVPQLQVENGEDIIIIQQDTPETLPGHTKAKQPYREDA
The test is described as above.

These are yes or no findings as the source states them, for the method shown. In cells and extracts the contact can be indirect. Some results given as binding are weak or reduced against the parent protein; the word gives no strength.

Turning to “DEAD box helicase 17 (DDX17) (from UniProt Q501J6 1-650)”, the binding entry in test [1] and in test [2] was “binds” throughout.

(Values after article PMC11735090.)
